Results as given in PubChem BioAssay AID2685 (National Center for Advancing Translational Sciences (NCATS), 2010).
In all, about 320,000 compounds went through this assay and about 2,100 (0.66%) were called active. Calls follow the shape of the dose curve; as a rule, active = well fitted inhibition curve with a large enough effect in the signal ratio, with a control signal flat (not every such curve was filed as active); inconclusive = small, poorly fitted or top-dose-only effect, or effect the other way, or a change in a side signal; inactive = flat fitted curve, though single readings scatter; the % refers to the signal ratio. Inconclusive results, whose numbers are uncertain, are shown. A potency beside an inconclusive call is a rough fit, not a confirmed value.

Test: qHTS Assay for Lipid Storage Modulators in Drosophila S3 Cells
Conditions: BODIPY lipid droplet fluorescence, 18-24 h, cells fed with added oleic acid; lipid storage change, negative = inhibition: at 46.1 µM (top of the series) unless noted
Procedure, shortened: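 Drosophila S3 cells loaded with oleic acid (400 uM, as added) and compounds at several concentrations; lipid droplets imaged by 488-nm laser-scanning cytometry, 500–530 nm intensity and object ratio to cell channel. Percent activity normalized to 20 uM Triacsin C.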
% is scaled to controls: 0 for no effect and ±100 for the full control effect; potency is read from the fitted curve at half-maximal effect.

Potency, inconclusive:
Cc1cc(Nc2ccccc2)nc(N2CCN(C(=O)c3ccc4c(c3)OCO4)CC2)n1 0.231 µM [activator, full curve]
CCCCNC(=S)NC(=O)c1ccc([N+](=O)[O-])cc1 29.1 µM [activator, partial curve, poor fit]
Cc1ccc(NC(=O)CN(C)C(=O)c2cc3c(s2)CCCCC3)cc1 23.1 µM [falling, single point]
c1ccc(Oc2nnc(-c3cccs3)c3ccccc23)cc1 9.2 µM [activator, partial curve]
O=C(O)C1C2C=CC(C2)C1C(=O)NCc1ccoc1 (stereo not drawn) 0.231 µM [falling, full curve, poor fit]
CCCN(CCC)C(=O)CSc1nc2ccsc2c(=O)n1NC(=O)c1ccccc1 7.31 µM [activator, partial curve]
O=C(CCNC(=O)c1ccc(Br)cc1)NCCCN1CCOCC1 6.51 µM [falling, single point]
N#C/C(=C/Nc1ccccc1C(=O)O)C(N)=O 2.31 µM [falling, partial curve]
COc1cc(NC(=O)c2ccc(CNc3c(N4CCCC4)c(=O)c3=O)cc2)cc(OC)c1OC 0.13 µM [falling, full curve]
COc1ccc(Cl)cc1NC(=O)c1ccco1 1.64 µM [activator, full curve]
NS(=O)(=O)c1ccc(NC(=O)COC(=O)CC2Sc3ccccc3NC2=O)cc1 (stereo not drawn) 6.51 µM [falling, single point]
COc1ccccc1C(=O)Nc1c(C(=O)N(CCN(C)C)Cc2ccco2)oc2ccccc12 6.51 µM [activator, single point]
COc1ccc(CNC(=O)CCc2nnc3ccc(NCCCN4CCCC4=O)nn23)cc1 29.1 µM [activator, single point]
Cc1ccc(NC(=O)c2ccc(Cn3cc(Cl)cn3)o2)c(C)c1 29.1 µM [falling, single point]
O=C(NCC1CCCO1)c1cccc(F)c1 (stereo not drawn) 29.1 µM [activator, single point]
O=c1[nH]c(-c2ccccc2)c(-c2ccccc2)nc1[N+](=O)[O-] 29.1 µM [falling, single point]
COc1ccc(C(=O)N[C@H](C(=O)Nc2sccc2C(N)=O)C(C)C)cc1 6.51 µM [rising, single point]

Lipid storage change, negative = inhibition, inconclusive:
O=C(NCc1ccco1)C1CCCN(S(=O)(=O)c2cccc3cccnc23)C1 (stereo not drawn) 8.32%
COc1ccc(N2CCN(Cc3nc4scc(-c5ccccc5)c4c(=O)[nH]3)CC2)cc1 66.8%
CCCCn1c(=O)c(CCC(=O)OCC(=O)Nc2ccc(F)c(Cl)c2)nc2ccccc21 50.7%
N#CC1=C(S)N(c2ccc(F)cc2)C(c2ccco2)NC1=O (stereo not drawn) 4.01%
CC(=O)N1C(=O)C2(Nc3ccccc3N2)c2ccccc21 9.46%
O=C(O)CN1C(=O)/C(=C\c2cccc(OCc3ccccc3F)c2)SC1=S -11.5%
Cc1c(-c2nnc(-c3ccc(C(F)(F)F)cc3)o2)cnn1-c1ccccc1 3.5%
CCN(CC)CC#CCC(O)(c1ccccc1)c1ccccc1 4.87%
Clc1cccc(/C=N/N2CCN(Cc3ccccc3)CC2)c1 216%
CC[C@@]12C(=O)N(c3ccc(C)cc3)C(=O)N1[C@H](c1cccc(C)c1)[C@@H]1C(=O)N(Cc3ccccc3)C(=O)[C@@H]12 9.93%
Cc1ccc(CC(=O)Nc2nc3ccccc3s2)cc1 -18.8%
Cc1ccc(-n2c(SCC(=O)Nc3ccc4c5c(cccc35)CC4)nc(O)c(C)c2=O)cc1 -36.1%
NNC(=O)c1cc(-c2ccc(O)cc2)nc2ccc(Br)cc12 5.71%
Cc1ccc(Cl)cc1NC(=O)COC(=O)c1ccc(COc2ccc3c(C)cc(=O)oc3c2)cc1 -44.6%
O=C(NCC1CCCO1)C1CCCN1C(=O)Nc1ccc(Cl)c(Cl)c1 (stereo not drawn) -1.52%
CCCCN1C(=O)N(C)C2NC(=S)NC21 (stereo not drawn) 12.7%
CCN1CCN(c2ccc(NC(=O)COc3ccccc3Cl)cc2)CC1 8.16%
COc1ccc(C(C)=O)cc1CN1C(=O)NC2(CCCC2)C1=O 44.1%
Cc1c(OC(C)C(=O)O)ccc2c(-c3ccccc3)cc(=O)oc12 (stereo not drawn) -12.2%
CC(=O)c1ccc(NS(=O)(=O)c2cc(-c3cnc(C4CC4)o3)ccc2C)cc1 16.2%
COc1ccc([C@H]2CC(=O)C=C(/C=C/c3ccc(Cl)cc3)C2)cc1 15.6%
CCc1ccc(Nc2n[n+](-c3ccccc3)c(-c3cccc(Cl)c3Cl)s2)cc1 10.4%
CN1N=C2c3ccccc3CCC2C1c1ccc(F)cc1 (stereo not drawn) 5.88%
Cc1onc(-c2c(F)cccc2Cl)c1C(=O)c1ccccc1O -7.48%
Nc1ccccc1Oc1c(F)c(F)c(Oc2ccccc2N)c(F)c1F -4.88%
CCOC(=O)N1CCC(NC(=O)c2cc3c(=O)n(C)c4ccccc4c3n2C)CC1 -21.6%
O=C1NC(c2ccc(Br)cc2)Oc2ccccc21 (stereo not drawn) 10.5%
O=C(NCCS(=O)(=O)N1CCN(c2ccc(F)cc2)CC1)C12CC3CC(CC(C3)C1)C2 -1.32%
CCCc1nnc(NC(=O)COC(=O)c2cc(C)nc3ccccc23)s1 18%
CC(C)N1CCc2c(sc(NC(=O)Cc3ccccc3)c2C(N)=O)C1 -5.9%
CCOC(=O)C(C)Oc1ccc(C2NC(=O)NC(C)=C2C(C)=O)cc1Br (stereo not drawn) 0.757%

Reprinted at random: 2 compounds from above, in no set order.
Lipid storage change, negative = inhibition, inconclusive:
CC(=O)N1C(=O)C2(Nc3ccccc3N2)c2ccccc21 9.46%
CCN(CC)CC#CCC(O)(c1ccccc1)c1ccccc1 4.87%
